The other results are listed elsewhere or left out. Values are raw readings; no control value is given beside them.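 Primary screen: polymyxin B was added at a level permeabilizing Salmonella outer membranes while sparing inner membranes. DMSO wells, both with and without polymyxin B, established maximum growth. Plate-to-plate variation meant each plate was ranked on its own, and the lowest-OD600 compounds were selected as hits.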
Test system: Salmonella enterica serovar Typhimurium SL1344
Experiment: bacterial growth OD600 after 18 h with compound and polymyxin B; higher = more bacterial growth (less inhibition)
Conditions: 50 µM, Mueller-Hinton broth

SMILES	bacterial growth OD600 (polymyxin B 1 µg/mL)	bacterial growth OD600 (polymyxin B 0.75 µg/mL)
O=C(Cc1ccccc1)Nc1ccnn1C1CCN(C2CCSCC2)CC1	1.06	–
CCOc1ccc(CN2CCN(Cc3c(OC)cccc3OC)CC2CCO)cc1 (centres undefined)	0.887	–
O=C(c1ccoc1)N1CCC(C2CCN(Cc3cccc(F)c3F)CC2)C1 (centres undefined)	–	0.837
O=C(CCC1CCN(C(=O)c2cccc3ccccc23)CC1)NC1CC1	0.941	–
CCOC(=O)C1(Cc2ccccc2C)CCCN(C(=O)c2cc(CC)nn2C)C1 (centres undefined)	0.595	–
CCN1CCN(C2(C(=O)N(C)Cc3ccncc3C)Cc3ccccc3C2)CC1	–	0.683
COc1cccc(OC)c1CN1CCC2(CC1)c1ccccc1[C@@H](NC(=O)c1ccsc1)[C@@H]2OC	–	0.889
Cc1cccc(C(=O)NC2CC(=O)N(CCCc3ccccc3)C2)n1 (centres undefined)	0.911	–
COc1ccc(C(=O)NC2CC2)c(OC2CCN(Cc3ccccc3)CC2)c1	1.17	–
Cc1ccc(CN2CCCC(N3CCN(Cc4ccc5c(c4)OCO5)CC3)C2)s1 (centres undefined)	0.912	–
COc1cccc(CC(C2CCN(C(=O)/C=C/C(C)C)CC2)N(C)C(=O)CC(C)C)c1 (centres undefined)	–	0.635
O=C(/C=C/c1ccco1)N1CCC2(CCCN(CCc3ccccc3)C2)C1 (centres undefined)	–	0.005
COc1cccc(OCc2nc(C(=O)NCC(F)(F)F)co2)c1	0.929	–
CSc1ccc(CC2(CCC(=O)N(C)CCc3cnn(C)c3)CCC(=O)N2)cc1 (centres undefined)	–	0.92
CC1CN(CCC(=O)NCc2cc(-c3ccccc3)[nH]n2)Cc2cc(Cl)ccc2O1 (centres undefined)	–	1.05
Cc1cc(C)n(-c2ccc(C(=O)N3CCCC(CCC(=O)NC4CC4)C3)cc2)n1 (centres undefined)	0.717	–
CC(C)N(Cc1cnn(C)c1)C(=O)c1ccc(OC2CCN(C(=O)C3CC3)CC2)cc1	0.824	–
CN(Cc1nc2ccccc2[nH]1)C(=O)C1CCC(=O)N(CCc2cccc(F)c2)C1 (centres undefined)	0.898	–
CC(=O)N1CCCN(C(=O)CC(c2cccc(Cl)c2)c2ccccc2O)CC1 (centres undefined)	0.923	–

Some of the entries so far, in CSV form:
SMILES,bacterial growth OD600 (polymyxin B 1 µg/mL),bacterial growth OD600 (polymyxin B 0.75 µg/mL)
Cc1cc(C)n(-c2ccc(C(=O)N3CCCC(CCC(=O)NC4CC4)C3)cc2)n1 (centres undefined),0.717,–
CC(C)N(Cc1cnn(C)c1)C(=O)c1ccc(OC2CCN(C(=O)C3CC3)CC2)cc1,0.824,–

Reference: the supplement of paper PMC12889115
